Results: patent US20260226160A1
Results are given in words; binding and its absence hold for the method and conditions named. Some results given as binding are weak or reduced against the parent protein; the word gives no strength.

Chains of the proteins cited; added tags and fusions are not shown. Lines headed by an entry give the natural chain unless they say otherwise; changes in a name come on top. Residues count along the entry.
UniProt Q9NZC2, residues 19-174: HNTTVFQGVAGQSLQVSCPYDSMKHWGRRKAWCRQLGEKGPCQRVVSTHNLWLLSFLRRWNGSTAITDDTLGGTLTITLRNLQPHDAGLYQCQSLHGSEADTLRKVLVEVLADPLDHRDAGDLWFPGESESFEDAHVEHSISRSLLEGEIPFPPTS

Assays:
[1] = target: T1, epitope peptide from the human TREM2 stalk region (…) (human); experiment: ELISA, coated epitope peptide
T1 sequence (peptide): DAGDLWFPG

[2] = target: extracellular domain of human TREM2 (ecTREM2), Hölzel Diagnostika 11084-H08H (human) (UniProt Q9NZC2); experiment: ELISA, coated ecTREM2

binding [1]: binds
binding [2]: binds
B1: antibody M03 (clone M03), fully human IgG1-LALA (antibody, V domains shown)
VH: EVQLVQSGGGLVQPGGSLRLSCAASGFTFSSYGITWVRQAPGKGLEWVSFISGGGSYTYYADSVKGRFTISRDNAKRTLYLQMNSLRAEDTAVYYCARSGRAYFDYWGQGTLVTVSS
VL: DIRLTQPPSVSGAPGQRVTISCSGSSSNIGSLFVSWYQQLPGTAPKLLIYSNSQHPSGVPDRFSGSKSGTSASLAITGLQAEDEADYYCSAYDQFSNSVVFGGGTKLTVLG
